# In patent publication US20030143729A1 (Synaptic Pharmaceutical Corporation, priority 1992, published 2003):
# Test system: endogenous taurine transporter in COS cells
# Assay: [3H]taurine uptake by non-transfected COS-7 cells (control)
# Format: cell-based
# Details: 50 nM [3H]taurine, 10 minutes, 37° C.
smiles,measurement,setting,value
"NCCCC(=O)O [GABA, gamma-aminobutyric acid]","% Inhibition of [3H]taurine uptake, control",inhibitor 10 μM,1 ± 1 (4) %
same,"% Inhibition of [3H]taurine uptake, control",inhibitor 100 μM,9 ± 4 (6) %
same,"% Inhibition of [3H]taurine uptake, control",inhibitor 1 mM,49 ± 2 (5) %
